Tests used:
[1] = Corrosion test: droplet of ionic liquid on grey cast iron; conditions: fourteen days of exposure
Description: A droplet of each IL was placed on the surface of a piece of grey cast iron.

[2] = High contact stress ball-on-flat reciprocating sliding test (friction and wear); conditions: for Wear rate: in GTL base oil: 1 wt % ZDDP, 1.03 wt % [P8888][DEHP], or 0.4 wt % ZDDP + 0.515 wt % [P8888][DEHP]

trihexyltetradecylphosphonium bis(2-ethylhexyl)phosphate [[P66614][DEHP]]
Corrosion of gray cast iron surface exposed to IL droplet [1]: no evidence of corrosion

zinc dialkyldithiophosphate [ZDDP]
Wear rate [2]: 1.83×10^−6 mm^3/N-m

tributyltetradecylphosphonium bis(2-ethylhexyl)phosphate [[P44414][DEHP]]
Corrosion of gray cast iron surface exposed to IL droplet [1]: pitting appeared

tetraoctylphosphonium bis(2-ethylhexyl)phosphate [[P8888][DEHP]]
Corrosion of gray cast iron surface exposed to IL droplet [1]: no evidence of corrosion
Lower wear rate as compared to [P66614][DEHP] or ZDDP ([2]; 1.03 wt % in GTL base oil): greater than 40%
Wear rate [2]: 1.05×10^−6 mm^3/N-m

From US10435642B2, “Ionic liquids containing symmetric quaternary phosphonium cations and phosphorus-containing anions, and their use as lubricant additives” (UT-Battelle, LLC, priority 2014, dated 2019)
